Test: Bidirectional permeability across Caco-2 cell monolayers
Format: in vitro ADME
Conditions: human; Caco-2, 5 μM
Experimental: The bidirectional permeability and absorption mechanism of ZB716 was evaluated across Caco-2 cell monolayers.
The apical-to-basolateral (A–B) and basolateral-to-apical (B–A) transport of ZB716 in HBSS (25 mM HEPES) with 1% BSA was measured across Caco-2 cell monolayers. […] All incubations were performed in triplicate, and the integrity of the cell monolayers was confirmed using the marker Lucifer yellow.
The slope, k, was determined by linear
using the following equation: […]
1.4 Intestinal Mucosal Permeation of ZB716
Papp= VAArea х timeх ሾdrugሿreceiverሾdrugሿinitial,donor

Papp A→B at 120 min, 5 μM: 0.506 ± 0.034 ×10⁻⁶ cm/s | Papp B→A at 120 min, 5 μM: 0.635 ± 0.042 ×10⁻⁶ cm/s
Structure (SMILES): CC(C)NCC(O)COc1ccc(CC(N)=O)cc1 (centres unmarked) [Atenolol, atenolol, reference compound]

From article PMC8400955 (Pharmaceuticals, 2021)
